Test results published in PMC11131071.

Biological target: T1, ABCG2 (human (endogenous in MCF-7/MX and H460/MX)) (UniProt Q9UNQ0)
T1 sequence: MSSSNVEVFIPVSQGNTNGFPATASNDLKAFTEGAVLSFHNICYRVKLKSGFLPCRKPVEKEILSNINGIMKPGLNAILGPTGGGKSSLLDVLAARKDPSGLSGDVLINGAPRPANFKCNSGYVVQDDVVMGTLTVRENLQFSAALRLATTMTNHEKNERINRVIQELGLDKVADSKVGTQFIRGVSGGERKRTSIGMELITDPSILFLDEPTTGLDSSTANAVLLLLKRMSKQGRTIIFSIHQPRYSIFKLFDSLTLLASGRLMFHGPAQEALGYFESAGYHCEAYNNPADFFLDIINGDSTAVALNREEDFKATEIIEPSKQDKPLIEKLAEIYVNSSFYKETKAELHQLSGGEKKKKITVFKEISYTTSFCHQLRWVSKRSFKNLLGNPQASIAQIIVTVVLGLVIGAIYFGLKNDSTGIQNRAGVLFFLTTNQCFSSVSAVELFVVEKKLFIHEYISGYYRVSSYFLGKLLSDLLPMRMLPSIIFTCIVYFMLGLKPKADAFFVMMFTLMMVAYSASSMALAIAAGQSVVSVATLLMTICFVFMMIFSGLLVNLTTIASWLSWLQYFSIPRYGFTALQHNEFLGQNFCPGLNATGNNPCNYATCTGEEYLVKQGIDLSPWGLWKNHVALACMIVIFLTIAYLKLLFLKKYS
Assay: affinity purification with mass spectrometry; lysates of MCF-7 and MCF-7/MX cells immunoprecipitated with the anti-ABCG2 antibody MXP-21; SDS-PAGE, silver staining; bands predominant in MCF-7/MX excised and analysed by mass spectrometry

B1: SLC1A5 (protein, UniProt Q15758 1-541)
chain: MVADPPRDSKGLAAAEPTANGGLALASIEDQGAAAGGYCGSRDQVRRCLRANLLVLLTVVAVVAGVALGLGVSGAGGALALGPERLSAFVFPGELLLRLLRMIILPLVVCSLIGGAASLDPGALGRLGAWALLFFLVTTLLASALGVGLALALQPGAASAAINASVGAAGSAENAPSKEVLDSFLDLARNIFPSNLVSAAFRSYSTTYEERNITGTRVKVPVGQEVEGMNILGLVVFAIVFGVALRKLGPEGELLIRFFNSFNEATMVLVSWIMWYAPVGIMFLVAGKIVEMEDVGLLFARLGKYILCCLLGHAIHGLLVLPLIYFLFTRKNPYRFLWGIVTPLATAFGTSSSSATLPLMMKCVEENNGVAKHISRFILPIGATVNMDGAALFQCVAAVFIAQLSQQSLDFVKIITILVTATASSVGAAGIPAGGVLTLAIILEAVNLPVDHISLILAVDWLVDRSCTVLNVEGDALGAGLLQNYVDRTESRSTEPELIQVKSELPLDPLPVPTEEGNPLLKHYRGPAGDATVASEKESVM
For B1, the binding was “binds”.

These are yes or no findings as the source states them, for the method shown. In cells and extracts the contact can be indirect. A yes stands for co-enrichment or nearness to the bait. Other partners may have been found.
